Results are given in words; binding and its absence hold for the method and conditions named. Binding seen in cells or lysates may run through a third protein. Some results given as binding are weak or reduced against the parent protein; the word gives no strength.
Molecular target: T1, EFCAB7 (human (endogenous in Hep3B)) (UniProt A8K855)
T1 sequence: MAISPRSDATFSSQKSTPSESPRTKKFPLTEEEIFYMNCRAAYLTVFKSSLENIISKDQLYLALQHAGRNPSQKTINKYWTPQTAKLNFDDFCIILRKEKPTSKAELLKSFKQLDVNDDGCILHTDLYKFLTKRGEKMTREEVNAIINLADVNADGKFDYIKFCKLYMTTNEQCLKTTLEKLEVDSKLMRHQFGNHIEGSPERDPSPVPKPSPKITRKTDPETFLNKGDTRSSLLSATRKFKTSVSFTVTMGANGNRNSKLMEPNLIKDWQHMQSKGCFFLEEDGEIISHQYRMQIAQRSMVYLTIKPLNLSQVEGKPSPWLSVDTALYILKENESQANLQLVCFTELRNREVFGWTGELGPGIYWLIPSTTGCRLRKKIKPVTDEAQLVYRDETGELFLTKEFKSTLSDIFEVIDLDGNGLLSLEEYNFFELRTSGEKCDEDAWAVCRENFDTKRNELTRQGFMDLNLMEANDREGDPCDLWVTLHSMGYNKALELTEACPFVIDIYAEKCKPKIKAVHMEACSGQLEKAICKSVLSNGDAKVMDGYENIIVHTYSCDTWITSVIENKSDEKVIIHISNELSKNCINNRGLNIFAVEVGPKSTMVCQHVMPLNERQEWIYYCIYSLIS
Assay: co-IP; 2 mg total cell lysate of Hep3B cells in IP buffer (10 mM phosphate buffer, 120 mM NaCl, 2.7 mM KCl, 1% Nonidet P-40, 0.5% DOC, 0.1% SDS); anti-EFCAB7 antibody on protein A/G mix beads overnight; immunoblotting

The chains behind the UniProt entries cited, without tags or fusion partners.
UniProt Q99497: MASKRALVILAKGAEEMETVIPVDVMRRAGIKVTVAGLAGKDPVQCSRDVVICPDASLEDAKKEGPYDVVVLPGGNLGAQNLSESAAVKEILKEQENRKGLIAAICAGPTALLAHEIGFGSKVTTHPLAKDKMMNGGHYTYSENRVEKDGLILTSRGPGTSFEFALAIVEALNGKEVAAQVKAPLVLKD

Substance: PARK7 (from UniProt Q99497 1-189)
- binding: binds
